# Source: the supplement of paper PMC11438910
# This is one part of the list. Most of these values are background signal.
# B1: 3S41.2 (protein)
# chain 1: EVQLVESGGGLVQPGGSLRLSCATSGFTFRNYWMYWFRQAPGKGLDWVSSISDSSSNTFYSDSVKGRFTISRDNAKNTLYLQMNSLRAEDTAVYYCARRPIAAATGVYWYFDLWGPGTPITVSS
# chain 2: QAALTQPPSMSGSPGQSVTISCTGTSSDIGGYNRVSWYQQYPGKAPKLMIYEVSKRPSGVSDRFSGSKSGNTAALTISGLQAADEADYYCSSYAGSYTFVLFGGGTRLTVL
# Tests used:
# Test in all cases: fluorescence intensity of antibody binding to polysaccharide-coupled beads; higher = stronger binding
# [1] = target: pneumococcal polysaccharide Pn41A
# [2] = target: pneumococcal polysaccharide Pn41F
# [3] = target: pneumococcal polysaccharide Pn42
# [4] = target: pneumococcal polysaccharide Pn43
# [5] = target: pneumococcal polysaccharide Pn44
# [6] = target: pneumococcal polysaccharide Pn45
# [7] = target: pneumococcal polysaccharide Pn46
# [8] = target: pneumococcal polysaccharide Pn47A
# [9] = target: pneumococcal polysaccharide Pn47F
# [10] = target: pneumococcal polysaccharide Pn48
# [11] = target: pneumococcal polysaccharide Pn5
# [12] = target: pneumococcal polysaccharide Pn6A
# [13] = target: pneumococcal polysaccharide Pn6B
# [14] = target: pneumococcal polysaccharide Pn6C
# [15] = target: pneumococcal polysaccharide Pn6D
# [16] = target: pneumococcal polysaccharide Pn7A
# [17] = target: pneumococcal polysaccharide Pn7B
# [18] = target: pneumococcal polysaccharide Pn7C
# [19] = target: pneumococcal polysaccharide Pn7F
# [20] = target: pneumococcal polysaccharide Pn8
# [21] = target: pneumococcal polysaccharide Pn9A
# [22] = target: pneumococcal polysaccharide Pn9L
# [23] = target: pneumococcal polysaccharide Pn9N
# [24] = target: pneumococcal polysaccharide Pn9V
# [25] = antibody concentration 2.8593 ng/mL
# [26] = antibody concentration 15.2894 ng/mL
# [27] = antibody concentration 81.7561 ng/mL
# [28] = antibody concentration 437.17 ng/mL
# [29] = antibody concentration 2337.65 ng/mL
# [30] = antibody concentration 12500 ng/mL
# [31] = antibody concentration 0.1 ng/mL
# [32] = antibody concentration 0.534724 ng/mL
binder,measurement,setting,value
B1,fluorescence intensity,[1]; [25],23.8 MFI
same,fluorescence intensity,[1]; [26],22.5 MFI
same,fluorescence intensity,[1]; [27],23 MFI
same,fluorescence intensity,[1]; [28],23.5 MFI
same,fluorescence intensity,[1]; [29],28 MFI
same,fluorescence intensity,[1]; [30],34.2 MFI
same,fluorescence intensity,[2]; [31],13.2 MFI
same,fluorescence intensity,[2]; [32],13.5 MFI
same,fluorescence intensity,[2]; [25],13.2 MFI
same,fluorescence intensity,[2]; [26],13 MFI
same,fluorescence intensity,[2]; [27],13.5 MFI
same,fluorescence intensity,[2]; [28],13 MFI
same,fluorescence intensity,[2]; [29],17 MFI
same,fluorescence intensity,[2]; [30],28.5 MFI
same,fluorescence intensity,[3]; [31],11 MFI
same,fluorescence intensity,[3]; [32],11.2 MFI
same,fluorescence intensity,[3]; [25],12.8 MFI
same,fluorescence intensity,[3]; [26],12 MFI
same,fluorescence intensity,[3]; [27],12.5 MFI
same,fluorescence intensity,[3]; [28],13 MFI
same,fluorescence intensity,[3]; [29],20.5 MFI
same,fluorescence intensity,[3]; [30],80.8 MFI
same,fluorescence intensity,[4]; [31],17 MFI
same,fluorescence intensity,[4]; [32],15.5 MFI
same,fluorescence intensity,[4]; [25],16 MFI
same,fluorescence intensity,[4]; [26],16.5 MFI
same,fluorescence intensity,[4]; [27],16 MFI
same,fluorescence intensity,[4]; [28],19 MFI
same,fluorescence intensity,[4]; [29],70.8 MFI
same,fluorescence intensity,[4]; [30],627 MFI
same,fluorescence intensity,[5]; [31],24.5 MFI
same,fluorescence intensity,[5]; [32],26 MFI
same,fluorescence intensity,[5]; [25],26 MFI
same,fluorescence intensity,[5]; [26],24.8 MFI
same,fluorescence intensity,[5]; [27],24 MFI
same,fluorescence intensity,[5]; [28],27 MFI
same,fluorescence intensity,[5]; [29],30.8 MFI
same,fluorescence intensity,[5]; [30],38.2 MFI
same,fluorescence intensity,[6]; [31],11.5 MFI
same,fluorescence intensity,[6]; [32],11 MFI
same,fluorescence intensity,[6]; [25],11.5 MFI
same,fluorescence intensity,[6]; [26],10.5 MFI
same,fluorescence intensity,[6]; [27],11 MFI
same,fluorescence intensity,[6]; [28],12 MFI
same,fluorescence intensity,[6]; [29],13.5 MFI
same,fluorescence intensity,[6]; [30],19.2 MFI
same,fluorescence intensity,[7]; [31],24 MFI
same,fluorescence intensity,[7]; [32],24 MFI
same,fluorescence intensity,[7]; [25],25 MFI
same,fluorescence intensity,[7]; [26],24 MFI
same,fluorescence intensity,[7]; [27],23.5 MFI
same,fluorescence intensity,[7]; [28],26.5 MFI
same,fluorescence intensity,[7]; [29],45 MFI
same,fluorescence intensity,[7]; [30],154 MFI
same,fluorescence intensity,[8]; [31],15.5 MFI
same,fluorescence intensity,[8]; [32],16 MFI
same,fluorescence intensity,[8]; [25],15.5 MFI
same,fluorescence intensity,[8]; [26],16.5 MFI
same,fluorescence intensity,[8]; [27],17.5 MFI
same,fluorescence intensity,[8]; [28],17 MFI
same,fluorescence intensity,[8]; [29],21 MFI
same,fluorescence intensity,[8]; [30],41 MFI
same,fluorescence intensity,[9]; [31],11 MFI
same,fluorescence intensity,[9]; [32],11.5 MFI
same,fluorescence intensity,[9]; [25],12 MFI
same,fluorescence intensity,[9]; [26],14.2 MFI
same,fluorescence intensity,[9]; [27],13.5 MFI
same,fluorescence intensity,[9]; [28],14.5 MFI
same,fluorescence intensity,[9]; [29],28.5 MFI
same,fluorescence intensity,[9]; [30],149 MFI
same,fluorescence intensity,[10]; [31],20.8 MFI
same,fluorescence intensity,[10]; [32],21 MFI
same,fluorescence intensity,[10]; [25],21.5 MFI
same,fluorescence intensity,[10]; [26],20.5 MFI
same,fluorescence intensity,[10]; [27],21.5 MFI
same,fluorescence intensity,[10]; [28],26.2 MFI
same,fluorescence intensity,[10]; [29],37.5 MFI
same,fluorescence intensity,[10]; [30],70.8 MFI
same,fluorescence intensity,[11]; [31],8.5 MFI
same,fluorescence intensity,[11]; [32],9.25 MFI
same,fluorescence intensity,[11]; [25],9.5 MFI
same,fluorescence intensity,[11]; [26],8 MFI
same,fluorescence intensity,[11]; [27],10 MFI
same,fluorescence intensity,[11]; [28],11.5 MFI
same,fluorescence intensity,[11]; [29],30.2 MFI
same,fluorescence intensity,[11]; [30],193 MFI
same,fluorescence intensity,[12]; [31],22 MFI
same,fluorescence intensity,[12]; [32],22 MFI
same,fluorescence intensity,[12]; [25],21.2 MFI
same,fluorescence intensity,[12]; [26],19.8 MFI
same,fluorescence intensity,[12]; [27],22.8 MFI
same,fluorescence intensity,[12]; [28],24 MFI
same,fluorescence intensity,[12]; [29],33 MFI
same,fluorescence intensity,[12]; [30],45.8 MFI
same,fluorescence intensity,[13]; [31],20.2 MFI
same,fluorescence intensity,[13]; [32],21 MFI
same,fluorescence intensity,[13]; [25],20 MFI
same,fluorescence intensity,[13]; [26],20 MFI
same,fluorescence intensity,[13]; [27],19.2 MFI
same,fluorescence intensity,[13]; [28],22 MFI
same,fluorescence intensity,[13]; [29],27.8 MFI
same,fluorescence intensity,[13]; [30],41.5 MFI
same,fluorescence intensity,[14]; [31],17.8 MFI
same,fluorescence intensity,[14]; [32],16.8 MFI
same,fluorescence intensity,[14]; [25],24 MFI
same,fluorescence intensity,[14]; [26],28 MFI
same,fluorescence intensity,[14]; [27],43.8 MFI
same,fluorescence intensity,[14]; [28],57 MFI
same,fluorescence intensity,[14]; [29],70.5 MFI
same,fluorescence intensity,[14]; [30],97.2 MFI
same,fluorescence intensity,[15]; [31],16.5 MFI
same,fluorescence intensity,[15]; [32],18.5 MFI
same,fluorescence intensity,[15]; [25],19.2 MFI
same,fluorescence intensity,[15]; [26],16.8 MFI
same,fluorescence intensity,[15]; [27],18 MFI
same,fluorescence intensity,[15]; [28],17.8 MFI
same,fluorescence intensity,[15]; [29],19.5 MFI
same,fluorescence intensity,[15]; [30],30.2 MFI
same,fluorescence intensity,[16]; [31],20.5 MFI
same,fluorescence intensity,[16]; [32],20 MFI
same,fluorescence intensity,[16]; [25],21 MFI
same,fluorescence intensity,[16]; [26],22 MFI
same,fluorescence intensity,[16]; [27],22.5 MFI
same,fluorescence intensity,[16]; [28],27.8 MFI
same,fluorescence intensity,[16]; [29],96.2 MFI
same,fluorescence intensity,[16]; [30],626 MFI
same,fluorescence intensity,[17]; [31],17 MFI
same,fluorescence intensity,[17]; [32],17 MFI
same,fluorescence intensity,[17]; [25],16 MFI
same,fluorescence intensity,[17]; [26],16.5 MFI
same,fluorescence intensity,[17]; [27],17.5 MFI
same,fluorescence intensity,[17]; [28],19 MFI
same,fluorescence intensity,[17]; [29],28.5 MFI
same,fluorescence intensity,[17]; [30],94 MFI
same,fluorescence intensity,[18]; [31],17 MFI
same,fluorescence intensity,[18]; [32],17 MFI
same,fluorescence intensity,[18]; [25],18 MFI
same,fluorescence intensity,[18]; [26],15.5 MFI
same,fluorescence intensity,[18]; [27],17 MFI
same,fluorescence intensity,[18]; [28],16.8 MFI
same,fluorescence intensity,[18]; [29],25 MFI
same,fluorescence intensity,[18]; [30],80 MFI
same,fluorescence intensity,[19]; [31],15.5 MFI
same,fluorescence intensity,[19]; [32],15 MFI
same,fluorescence intensity,[19]; [25],15 MFI
same,fluorescence intensity,[19]; [26],15.5 MFI
same,fluorescence intensity,[19]; [27],17 MFI
same,fluorescence intensity,[19]; [28],20 MFI
same,fluorescence intensity,[19]; [29],68.5 MFI
same,fluorescence intensity,[19]; [30],536 MFI
same,fluorescence intensity,[20]; [31],20.5 MFI
same,fluorescence intensity,[20]; [32],22 MFI
same,fluorescence intensity,[20]; [25],22 MFI
same,fluorescence intensity,[20]; [26],22.5 MFI
same,fluorescence intensity,[20]; [27],21.5 MFI
same,fluorescence intensity,[20]; [28],25 MFI
same,fluorescence intensity,[20]; [29],35.5 MFI
same,fluorescence intensity,[20]; [30],57.5 MFI
same,fluorescence intensity,[21]; [31],19.5 MFI
same,fluorescence intensity,[21]; [32],20 MFI
same,fluorescence intensity,[21]; [25],20 MFI
same,fluorescence intensity,[21]; [26],20.5 MFI
same,fluorescence intensity,[21]; [27],21.5 MFI
same,fluorescence intensity,[21]; [28],20 MFI
same,fluorescence intensity,[21]; [29],35 MFI
same,fluorescence intensity,[21]; [30],123 MFI
same,fluorescence intensity,[22]; [31],18 MFI
same,fluorescence intensity,[22]; [32],17 MFI
same,fluorescence intensity,[22]; [25],17 MFI
same,fluorescence intensity,[22]; [26],18 MFI
same,fluorescence intensity,[22]; [27],19 MFI
same,fluorescence intensity,[22]; [28],18 MFI
same,fluorescence intensity,[22]; [29],25 MFI
same,fluorescence intensity,[22]; [30],51 MFI
same,fluorescence intensity,[23]; [31],16.5 MFI
same,fluorescence intensity,[23]; [32],15.5 MFI
same,fluorescence intensity,[23]; [25],17 MFI
same,fluorescence intensity,[23]; [26],16.5 MFI
same,fluorescence intensity,[23]; [27],16 MFI
same,fluorescence intensity,[23]; [28],17.5 MFI
same,fluorescence intensity,[23]; [29],27.5 MFI
same,fluorescence intensity,[23]; [30],67.5 MFI
same,fluorescence intensity,[24]; [31],15 MFI
same,fluorescence intensity,[24]; [32],15.2 MFI
same,fluorescence intensity,[24]; [25],14.5 MFI
same,fluorescence intensity,[24]; [26],13.5 MFI
same,fluorescence intensity,[24]; [27],15 MFI
same,fluorescence intensity,[24]; [28],16 MFI
same,fluorescence intensity,[24]; [29],20.5 MFI
same,fluorescence intensity,[24]; [30],26.5 MFI

# Looked up one by one from above, 6 records:
binder,measurement,setting,value
B1,fluorescence intensity,[9]; [30],149 MFI
same,fluorescence intensity,[4]; [25],16 MFI
same,fluorescence intensity,[18]; [32],17 MFI
same,fluorescence intensity,[17]; [28],19 MFI
same,fluorescence intensity,[15]; [28],17.8 MFI
same,fluorescence intensity,[9]; [27],13.5 MFI

# An excerpt of these results, tab-delimited:
binder	measurement	setting	value
B1	fluorescence intensity	[14]; [27]	43.8 MFI
same	fluorescence intensity	[14]; [28]	57 MFI
same	fluorescence intensity	[14]; [29]	70.5 MFI
same	fluorescence intensity	[14]; [30]	97.2 MFI
same	fluorescence intensity	[15]; [31]	16.5 MFI

# Part of the list above, set out differently:
binder | measurement | setting | value
B1 | fluorescence intensity | [8]; [29] | 21 MFI
same | fluorescence intensity | [8]; [30] | 41 MFI
same | fluorescence intensity | [9]; [31] | 11 MFI
